In article PMC5352113 one finds binding data, which are given here for five molecules.

Results are given in words; binding and its absence hold for the method and conditions named. Binding seen in cells or lysates may run through a third protein. Here binding means that the protein was enriched with, or labelled near, the bait; the list need not be complete. For some assays here: No binding means not detected with the bait.

The target of assay [1] is T1, vascular endothelial (VE)-cadherin (human (endogenous in BLM, A375, MDA-MB-468, SKBR3)), P33151.
T1 chain: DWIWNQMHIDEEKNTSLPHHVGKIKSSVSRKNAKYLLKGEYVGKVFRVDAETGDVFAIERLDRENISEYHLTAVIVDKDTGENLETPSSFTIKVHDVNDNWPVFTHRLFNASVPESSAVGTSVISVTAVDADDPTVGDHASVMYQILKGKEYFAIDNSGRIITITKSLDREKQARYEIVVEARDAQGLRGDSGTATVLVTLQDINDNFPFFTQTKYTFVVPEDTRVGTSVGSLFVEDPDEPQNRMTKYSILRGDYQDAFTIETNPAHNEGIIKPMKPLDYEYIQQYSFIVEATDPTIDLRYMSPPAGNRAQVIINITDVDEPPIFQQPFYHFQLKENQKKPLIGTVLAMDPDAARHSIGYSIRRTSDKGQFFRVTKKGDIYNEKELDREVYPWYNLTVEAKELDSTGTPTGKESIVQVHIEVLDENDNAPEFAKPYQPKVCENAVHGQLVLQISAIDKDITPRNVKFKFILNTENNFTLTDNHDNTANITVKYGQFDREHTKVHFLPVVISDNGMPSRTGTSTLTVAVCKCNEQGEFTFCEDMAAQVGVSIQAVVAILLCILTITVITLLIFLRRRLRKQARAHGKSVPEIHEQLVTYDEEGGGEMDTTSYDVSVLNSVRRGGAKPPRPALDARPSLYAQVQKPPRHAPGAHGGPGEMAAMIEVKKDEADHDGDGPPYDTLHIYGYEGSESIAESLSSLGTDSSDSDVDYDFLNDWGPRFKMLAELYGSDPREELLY
The experiment in a line: affinity purification with mass spectrometry; 10 mg of BLM or MDA-MB-468 cell lysate immunoprecipitated with anti-VE-cadherin or control antibodies; SDS-PAGE, three slices, trypsin, nanoLC-MS/MS; contaminants filtered with CRAPome. Particulars: remark: other sources report otherwise.

Assay [2] has as its target T2, vascular endothelial (VE)-cadherin (human (endogenous in BLM, A375, MDA-MB-468, SKBR3)) (UniProt P33151).
T2 sequence: T1 chain
The description is as above.

B1: FAK, Q05397 1-1052 (enzyme)
chain: MAAAYLDPNLNHTPNSSTKTHLGTGMERSPGAMERVLKVFHYFESNSEPTTWASIIRHGDATDVRGIIQKIVDSHKVKHVACYGFRLSHLRSEEVHWLHVDMGVSSVREKYELAHPPEEWKYELRIRYLPKGFLNQFTEDKPTLNFFYQQVKSDYMLEIADQVDQEIALKLGCLEIRRSYWEMRGNALEKKSNYEVLEKDVGLKRFFPKSLLDSVKAKTLRKLIQQTFRQFANLNREESILKFFEILSPVYRFDKECFKCALGSSWIISVELAIGPEEGISYLTDKGCNPTHLADFTQVQTIQYSNSEDKDRKGMLQLKIAGAPEPLTVTAPSLTIAENMADLIDGYCRLVNGTSQSFIIRPQKEGERALPSIPKLANSEKQGMRTHAVSVSETDDYAEIIDEEDTYTMPSTRDYEIQRERIELGRCIGEGQFGDVHQGIYMSPENPALAVAIKTCKNCTSDSVREKFLQEALTMRQFDHPHIVKLIGVITENPVWIIMELCTLGELRSFLQVRKYSLDLASLILYAYQLSTALAYLESKRFVHRDIAARNVLVSSNDCVKLGDFGLSRYMEDSTYYKASKGKLPIKWMAPESINFRRFTSASDVWMFGVCMWEILMHGVKPFQGVKNNDVIGRIENGERLPMPPNCPPTLYSLMTKCWAYDPSRRPRFTELKAQLSTILEEEKAQQEERMRMESRRQATVSWDSGGSDEAPPKPSRPGYPSPRSSEGFYPSPQHMVQTNHYQVSGYPGSHGITAMAGSIYPGQASLLDQTDSWNHRPQEIAMWQPNVEDSTVLDLRGIGQVLPTHLMEERLIRQQQEMEEDQRWLEKEERFLKPDVRLSRGSIDREDGSLQGPIGNQHIYQPVGKPDPAAPPKKPPRPGAPGHLGSLASLSSPADSYNEGVKLQPQEISPPPTANLDRSNDKVYENVTGLVKAVIEMSSKIQPAPPEEYVPMVKEVGLALRTLLATVDETIPLLPASTHREIEMAQKLLNSDLGELINKMKLAQQYVMTSLQQEYKKQMLTAAHALAVDAKNLLDVIDQARLKMLGQTRPH
For B1, the binding entry in assay [1] was “binds”.

B2: β-catenin, P35222 1-781 (protein)
chain: MATQADLMELDMAMEPDRKAAVSHWQQQSYLDSGIHSGATTTAPSLSGKGNPEEEDVDTSQVLYEWEQGFSQSFTQEQVADIDGQYAMTRAQRVRAAMFPETLDEGMQIPSTQFDAAHPTNVQRLAEPSQMLKHAVVNLINYQDDAELATRAIPELTKLLNDEDQVVVNKAAVMVHQLSKKEASRHAIMRSPQMVSAIVRTMQNTNDVETARCTAGTLHNLSHHREGLLAIFKSGGIPALVKMLGSPVDSVLFYAITTLHNLLLHQEGAKMAVRLAGGLQKMVALLNKTNVKFLAITTDCLQILAYGNQESKLIILASGGPQALVNIMRTYTYEKLLWTTSRVLKVLSVCSSNKPAIVEAGGMQALGLHLTDPSQRLVQNCLWTLRNLSDAATKQEGMEGLLGTLVQLLGSDDINVVTCAAGILSNLTCNNYKNKMMVCQVGGIEALVRTVLRAGDREDITEPAICALRHLTSRHQEAEMAQNAVRLHYGLPVVVKLLHPPSHWPLIKATVGLIRNLALCPANHAPLREQGAIPRLVQLLVRAHQDTQRRTSMGGTQQQFVEGVRMEEIVEGCTGALHILARDVHNRIVIRGLNTIPLFVQLLYSPIENIQRVAAGVLCELAQDKEAAEAIEAEGATAPLTELLHSRNEGVATYAAAVLFRMSEDKPQDYKKRLSVELTSSLFRTEPMAWNETADLGLDIGAQGEPLGYRQDDPSYRSFHSGGYGQDALGMDPMMEHEMGGHHPGADYPVDGLPDLGHAQDLMDGLPPGDSNQLAWFDTDL
In the case of B2, the binding result in assay [1] is reported as “no binding”.

B3: plakoglobin (protein, UniProt P14923 1-745)
chain: MEVMNLMEQPIKVTEWQQTYTYDSGIHSGANTCVPSVSSKGIMEEDEACGRQYTLKKTTTYTQGVPPSQGDLEYQMSTTARAKRVREAMCPGVSGEDSSLLLATQVEGQATNLQRLAEPSQLLKSAIVHLINYQDDAELATRALPELTKLLNDEDPVVVTKAAMIVNQLSKKEASRRALMGSPQLVAAVVRTMQNTSDLDTARCTTSILHNLSHHREGLLAIFKSGGIPALVRMLSSPVESVLFYAITTLHNLLLYQEGAKMAVRLADGLQKMVPLLNKNNPKFLAITTDCLQLLAYGNQESKLIILANGGPQALVQIMRNYSYEKLLWTTSRVLKVLSVCPSNKPAIVEAGGMQALGKHLTSNSPRLVQNCLWTLRNLSDVATKQEGLESVLKILVNQLSVDDVNVLTCATGTLSNLTCNNSKNKTLVTQNSGVEALIHAILRAGDKDDITEPAVCALRHLTSRHPEAEMAQNSVRLNYGIPAIVKLLNQPNQWPLVKATIGLIRNLALCPANHAPLQEAAVIPRLVQLLVKAHQDAQRHVAAGTQQPYTDGVRMEEIVEGCTGALHILARDPMNRMEIFRLNTIPLFVQLLYSSVENIQRVAAGVLCELAQDKEAADAIDAEGASAPLMELLHSRNEGTATYAAAVLFRISEDKNPDYRKRVSVELTNSLFKHDPAAWEAAQSMIPINEPYGDDMDATYRPMYSSDVPLDPLEMHMDMDGDYPIDTYSDGLRPPYPTADHMLA
In the case of B3, in assay [2], the binding entry is reported as “binds”.

B4: p120-catenin (protein, UniProt O60716 1-968)
chain: MDDSEVESTASILASVKEQEAQFEKLTRALEEERRHVSAQLERVRVSPQDANPLMANGTLTRRHQNGRFVGDADLERQKFSDLKLNGPQDHSHLLYSTIPRMQEPGQIVETYTEEDPEGAMSVVSVETSDDGTTRRTETTVKKVVKTVTTRTVQPVAMGPDGLPVDASSVSNNYIQTLGRDFRKNGNGGPGPYVGQAGTATLPRNFHYPPDGYSRHYEDGYPGGSDNYGSLSRVTRIEERYRPSMEGYRAPSRQDVYGPQPQVRVGGSSVDLHRFHPEPYGLEDDQRSMGYDDLDYGMMSDYGTARRTGTPSDPRRRLRSYEDMIGEEVPSDQYYWAPLAQHERGSLASLDSLRKGGPPPPNWRQPELPEVIAMLGFRLDAVKSNAAAYLQHLCYRNDKVKTDVRKLKGIPVLVGLLDHPKKEVHLGACGALKNISFGRDQDNKIAIKNCDGVPALVRLLRKARDMDLTEVITGTLWNLSSHDSIKMEIVDHALHALTDEVIIPHSGWEREPNEDCKPRHIEWESVLTNTAGCLRNVSSERSEARRKLRECDGLVDALIFIVQAEIGQKDSDSKLVENCVCLLRNLSYQVHREIPQAERYQEAAPNVANNTGPHAASCFGAKKGKDEWFSRGKKPIEDPANDTVDFPKRTSPARGYELLFQPEVVRIYISLLKESKTPAILEASAGAIQNLCAGRWTYGRYIRSALRQEKALSAIADLLTNEHERVVKAASGALRNLAVDARNKELIGKHAIPNLVKNLPGGQQNSSWNFSEDTVISILNTINEVIAENLEAAKKLRETQGIEKLVLINKSGNRSEKEVRAAALVLQTIWGYKELRKPLEKEGWKKSDFQVNLNNASRSQSSHSYDDSTLPLIDRNQKSDKKPDREEIQMSNMGSNTKSLDNNYSTPNERGDHNRTLDRSGDLGDMEPLKGTTPLMQDEGQESLEEELDVLVLDDEGGQVSYPSMQKI
On to B4, for which the binding result in assay [2] is on record as “binds”.

B5: ALCAM (protein, UniProt Q13740 28-583)
chain: WYTVNSAYGDTIIIPCRLDVPQNLMFGKWKYEKPDGSPVFIAFRSSTKKSVQYDDVPEYKDRLNLSENYTLSISNARISDEKRFVCMLVTEDNVFEAPTIVKVFKQPSKPEIVSKALFLETEQLKKLGDCISEDSYPDGNITWYRNGKVLHPLEGAVVIIFKKEMDPVTQLYTMTSTLEYKTTKADIQMPFTCSVTYYGPSGQKTIHSEQAVFDIYYPTEQVTIQVLPPKNAIKEGDNITLKCLGNGNPPPEEFLFYLPGQPEGIRSSNTYTLTDVRRNATGDYKCSLIDKKSMIASTAITVHYLDLSLNPSGEVTRQIGDALPVSCTISASRNATVVWMKDNIRLRSSPSFSSLHYQDAGNYVCETALQEVEGLKKRESLTLIVEGKPQIKMTKKTDPSGLSKTIICHVEGFPKPAIQWTITGSGSVINQTEESPYINGRYYSKIIISPEENVTLTCTAENQLERTVNSLNVSAISIPEHDEADEISDENREKVNDQAKLIVGIVVGLLLAALVAGVVYWLYMKKSKTASKHVNKDLGNMEENKKLEENNHKTEA
For the molecule B5, in assay [2], the binding entry is reported as “binds”.
